Test [1] deals with HDAC1 (human (endogenous in THP-1)) (UniProt Q13547). Nature of the test: co-IP.
Test [2] has as its target T1, Sin3a (human (endogenous in THP-1)) (UniProt Q96ST3).
T1 sequence: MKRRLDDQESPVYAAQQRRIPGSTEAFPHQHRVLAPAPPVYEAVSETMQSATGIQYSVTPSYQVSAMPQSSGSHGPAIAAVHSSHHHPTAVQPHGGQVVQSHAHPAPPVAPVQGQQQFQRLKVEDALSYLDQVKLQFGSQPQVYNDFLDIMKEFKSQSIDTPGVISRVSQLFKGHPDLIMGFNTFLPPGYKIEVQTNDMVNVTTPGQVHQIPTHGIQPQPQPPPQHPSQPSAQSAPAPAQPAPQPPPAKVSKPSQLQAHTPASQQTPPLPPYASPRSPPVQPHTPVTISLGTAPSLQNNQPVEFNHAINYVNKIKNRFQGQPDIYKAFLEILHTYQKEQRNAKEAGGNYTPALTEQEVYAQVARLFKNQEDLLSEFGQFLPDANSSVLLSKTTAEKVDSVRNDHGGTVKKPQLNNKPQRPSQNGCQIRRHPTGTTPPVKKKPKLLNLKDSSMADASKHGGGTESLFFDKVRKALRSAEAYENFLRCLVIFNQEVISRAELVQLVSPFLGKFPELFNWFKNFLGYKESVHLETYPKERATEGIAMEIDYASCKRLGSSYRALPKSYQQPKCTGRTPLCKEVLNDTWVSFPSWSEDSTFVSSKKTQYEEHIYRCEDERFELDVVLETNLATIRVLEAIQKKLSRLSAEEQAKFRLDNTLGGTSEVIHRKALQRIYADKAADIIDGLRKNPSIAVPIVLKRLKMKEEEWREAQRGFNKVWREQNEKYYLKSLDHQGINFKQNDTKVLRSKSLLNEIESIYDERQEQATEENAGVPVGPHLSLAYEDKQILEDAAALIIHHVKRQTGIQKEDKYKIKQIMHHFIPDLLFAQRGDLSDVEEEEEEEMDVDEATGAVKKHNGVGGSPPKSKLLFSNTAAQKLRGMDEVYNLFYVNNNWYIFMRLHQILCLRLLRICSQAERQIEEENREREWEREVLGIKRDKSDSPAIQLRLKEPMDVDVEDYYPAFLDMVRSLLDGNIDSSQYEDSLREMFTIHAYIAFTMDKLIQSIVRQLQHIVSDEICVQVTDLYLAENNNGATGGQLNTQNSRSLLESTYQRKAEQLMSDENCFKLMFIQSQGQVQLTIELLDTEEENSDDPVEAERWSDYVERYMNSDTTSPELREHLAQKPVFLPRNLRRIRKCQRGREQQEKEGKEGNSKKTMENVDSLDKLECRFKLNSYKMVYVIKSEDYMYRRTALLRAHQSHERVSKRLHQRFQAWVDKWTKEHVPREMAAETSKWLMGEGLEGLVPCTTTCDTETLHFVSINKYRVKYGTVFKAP
Nature of the test: co-IP.

Protein sequences, listed by entry. Tags and fused reporters are not part of them.
UniProt Q13547: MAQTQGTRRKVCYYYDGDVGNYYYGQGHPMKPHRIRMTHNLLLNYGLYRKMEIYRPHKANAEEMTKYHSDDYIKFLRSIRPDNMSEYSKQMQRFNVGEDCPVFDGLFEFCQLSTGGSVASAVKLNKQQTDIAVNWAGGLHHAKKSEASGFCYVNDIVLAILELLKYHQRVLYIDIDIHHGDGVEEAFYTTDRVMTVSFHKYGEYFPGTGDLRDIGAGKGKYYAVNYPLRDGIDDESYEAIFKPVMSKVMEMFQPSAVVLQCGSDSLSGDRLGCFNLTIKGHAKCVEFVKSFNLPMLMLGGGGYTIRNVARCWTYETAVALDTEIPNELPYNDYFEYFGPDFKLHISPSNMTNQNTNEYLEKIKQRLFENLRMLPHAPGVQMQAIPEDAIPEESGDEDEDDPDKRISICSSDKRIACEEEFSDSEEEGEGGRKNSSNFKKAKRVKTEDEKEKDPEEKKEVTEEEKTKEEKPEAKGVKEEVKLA

No constants are given. Whether binding was seen depends on the method and setting. Binding seen in cells or lysates may run through a third protein. Some binding calls cover weakened binding; strength is not graded here.

B1: ZBTB25 (protein, UniProt P24278 1-435)
chain: MDTASHSLVLLQQLNMQREFGFLCDCTVAIGDVYFKAHRAVLAAFSNYFKMIFIHQTSECIKIQPTDIQPDIFSYLLHIMYTGKGPKQIVDHSRLEEGIRFLHADYLSHIATEMNQVFSPETVQSSNLYGIQISTTQKTVVKQGLEVKEAPSSNSGNRAAVQGDHPQLQLSLAIGLDDGTADQQRACPATQALEEHQKPPVSIKQERCDPESVISQSHPSPSSEVTGPTFTENSVKIHLCHYCGERFDSRSNLRQHLHTHVSGSLPFGVPASILESNDLGEVHPLNENSEALECRRLSSFIVKENEQQPDHTNRGTTEPLQISQVSLISKDTEPVELNCNFSFSRKRKMSCTICGHKFPRKSQLLEHMYTHKGKSYRYNRCQRFGNALAQRFQPYCDSWSDVSLKSSRLSQEHLDLPCALESELTQENVDTILVE
Consider B1, for which the binding entry in test [1] and in test [2] was “binds” in each case.

Values taken from paper doi:10.1101/2020.06.22.164350.
